Results deposited as PubChem BioAssay AID1259254 (NCATS, 2017)
Purpose: 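Genome-wide screen for genes that prevent DNA re-replication in cancer cells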 (primary screen). Cells: human HCT116 colorectal cancer cells. Knock-down reagent: single siRNA against human genes. Duration: 3 days. Read-out: 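Nuclei stained with Hoechst and imaged; cell-cycle phase assigned by DNA content; G2 share scaled per plate, non-targeting siRNA 0%, GMNN siRNA 100%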. Reading the numbers: G2 robust z-score and G2 cells, % of GMNN control: higher = more G2 cells, more excess DNA replication. Hit rule: 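Active siRNAs have a G2 robust z of 5 or more median absolute deviations over the median, which in these data means about 38% or higher of GMNN control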.
The deposit covers about 59,000 reagents; below is an unselected part. About 1,550 of them (2.6%) count as active. 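G2 share is only a proxy for re-replication; each gene was hit by three separate siRNAs, and active genes were retested.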 Reagents against one gene are numbered here. Further read-outs or replicates are left out here. The record does not give: the amount of reagent.

no.	gene	reagent	G2 robust z-score	G2 cells, % of GMNN control	outcome
1	OTC (ornithine transcarbamylase)	1	2.01	17.1	inactive
2	OTC (ornithine transcarbamylase)	2	-0.741	-2.25	inactive
3	OTC (ornithine transcarbamylase)	3	-0.818	-2.79	inactive
4	TRMT10B (tRNA methyltransferase 10B)	1	-0.33	0.647	inactive
5	TRMT10B (tRNA methyltransferase 10B)	2	-0.841	-2.95	inactive
6	TRMT10B (tRNA methyltransferase 10B)	3	0.52	6.63	inactive
7	TMEM35A (transmembrane protein 35A)	1	0.105	3.7	inactive
8	TMEM35A (transmembrane protein 35A)	2	2.32	19.3	inactive
9	TMEM35A (transmembrane protein 35A)	3	-0.937	-3.63	inactive
10	CYP11A1 (cytochrome P450 family 11 subfamily A member 1)	1	0.171	4.17	inactive
11	CYP11A1 (cytochrome P450 family 11 subfamily A member 1)	2	-0.93	-3.57	inactive
12	CYP11A1 (cytochrome P450 family 11 subfamily A member 1)	3	4.07	31.6	inactive
13	ASB2 (ankyrin repeat and SOCS box containing 2)	1	-0.965	-3.82	inactive
14	ASB2 (ankyrin repeat and SOCS box containing 2)	2	-0.0487	2.62	inactive
15	ASB2 (ankyrin repeat and SOCS box containing 2)	3	0.264	4.82	inactive
16	SLPI (secretory leukocyte peptidase inhibitor)	1	-0.591	-1.19	inactive
17	SLPI (secretory leukocyte peptidase inhibitor)	2	2.24	18.7	inactive
18	SLPI (secretory leukocyte peptidase inhibitor)	3	-0.385	0.261	inactive
19	GRID2 (glutamate ionotropic receptor delta type subunit 2)	1	3.79	29.7	inactive
20	GRID2 (glutamate ionotropic receptor delta type subunit 2)	2	-1.28	-6.06	inactive
21	GRID2 (glutamate ionotropic receptor delta type subunit 2)	3	1.53	13.7	inactive
22	SSBP1 (single stranded DNA binding protein 1)	1	-0.369	0.371	inactive
23	SSBP1 (single stranded DNA binding protein 1)	2	-0.52	-0.693	inactive
24	SSBP1 (single stranded DNA binding protein 1)	3	-1.31	-6.27	inactive
25	GRIA4 (glutamate ionotropic receptor AMPA type subunit 4)	1	-1.21	-5.57	inactive
26	GRIA4 (glutamate ionotropic receptor AMPA type subunit 4)	2	-0.928	-3.56	inactive
27	GRIA4 (glutamate ionotropic receptor AMPA type subunit 4)	3	0.789	8.52	inactive
28	GSPT1 (G1 to S phase transition 1)	1	0.149	4.02	inactive
29	GSPT1 (G1 to S phase transition 1)	2	1.8	15.6	inactive
30	GSPT1 (G1 to S phase transition 1)	3	6.81	50.9	active
31	LIMCH1 (LIM and calponin homology domains 1)	1	-0.726	-2.14	inactive
32	LIMCH1 (LIM and calponin homology domains 1)	2	-0.306	0.812	inactive
33	LIMCH1 (LIM and calponin homology domains 1)	3	-0.592	-1.2	inactive
34	STAT5B (signal transducer and activator of transcription 5B)	1	-0.728	-2.15	inactive
35	STAT5B (signal transducer and activator of transcription 5B)	2	-1.45	-7.24	inactive
36	STAT5B (signal transducer and activator of transcription 5B)	3	-0.256	1.17	inactive
37	SIGLEC7 (sialic acid binding Ig like lectin 7)	1	3.91	30.5	inactive
38	SIGLEC7 (sialic acid binding Ig like lectin 7)	2	-0.795	-2.63	inactive
39	SIGLEC7 (sialic acid binding Ig like lectin 7)	3	-0.6	-1.26	inactive
40	RNASEH2A (ribonuclease H2 subunit A)	1	-0.563	-0.995	inactive
41	RNASEH2A (ribonuclease H2 subunit A)	2	-1.63	-8.53	inactive
42	RNASEH2A (ribonuclease H2 subunit A)	3	-0.576	-1.08	inactive
43	SLC39A14	1	0.664	7.64	inactive
44	SLC39A14	2	0.832	8.82	inactive
45	SLC39A14	3	-0.947	-3.7	inactive
46	ATAD2 (ATPase family AAA domain containing 2)	1	-0.779	-2.51	inactive
47	ATAD2 (ATPase family AAA domain containing 2)	2	0.762	8.33	inactive
48	ATAD2 (ATPase family AAA domain containing 2)	3	-0.613	-1.35	inactive
49	TPRKB (TP53RK binding protein)	1	1.21	11.5	inactive
50	TPRKB (TP53RK binding protein)	2	-0.218	1.43	inactive
51	TPRKB (TP53RK binding protein)	3	0.0408	3.25	inactive
52	SLC7A2	1	-1.06	-4.46	inactive
53	SLC7A2	2	0.173	4.19	inactive
54	SLC7A2	3	-0.869	-3.14	inactive
55	CRTC1 (CREB regulated transcription coactivator 1)	1	-0.0299	2.76	inactive
56	CRTC1 (CREB regulated transcription coactivator 1)	2	-0.687	-1.87	inactive
57	CRTC1 (CREB regulated transcription coactivator 1)	3	2.59	21.2	inactive
58	PLIN1 (perilipin 1)	1	0.342	5.37	inactive
59	PLIN1 (perilipin 1)	2	-0.246	1.23	inactive
60	PLIN1 (perilipin 1)	3	3.81	29.8	inactive
61	TPCN1 (two pore segment channel 1)	1	-0.381	0.289	inactive
62	TPCN1 (two pore segment channel 1)	2	-0.19	1.63	inactive
63	TPCN1 (two pore segment channel 1)	3	-0.285	0.962	inactive
64	SPATC1 (spermatogenesis and centriole associated 1)	1	-0.234	1.32	inactive
65	SPATC1 (spermatogenesis and centriole associated 1)	2	0.0522	3.33	inactive
66	SPATC1 (spermatogenesis and centriole associated 1)	3	-0.354	0.476	inactive
67	SFT2D3 (SFT2 domain containing 3)	1	-0.703	-1.98	inactive
68	SFT2D3 (SFT2 domain containing 3)	2	0.226	4.56	inactive
69	SFT2D3 (SFT2 domain containing 3)	3	-0.235	1.32	inactive
70	RPSAP48 (ribosomal protein SA pseudogene 48)	1	-0.484	-0.435	inactive
71	RPSAP48 (ribosomal protein SA pseudogene 48)	2	2.86	23.1	inactive
72	RPSAP48 (ribosomal protein SA pseudogene 48)	3	-1.03	-4.27	inactive
73	KCNA1 (potassium voltage-gated channel subfamily A member 1)	1	1.38	12.7	inactive
74	KCNA1 (potassium voltage-gated channel subfamily A member 1)	2	1.67	14.7	inactive
75	KCNA1 (potassium voltage-gated channel subfamily A member 1)	3	-0.631	-1.47	inactive
76	IFT57 (intraflagellar transport 57)	1	-0.0935	2.31	inactive
77	IFT57 (intraflagellar transport 57)	2	7.33	54.5	active
78	IFT57 (intraflagellar transport 57)	3	3.27	26	inactive
79	DNAJB7 (DnaJ heat shock protein family (Hsp40) member B7)	1	1.32	12.2	inactive
80	DNAJB7 (DnaJ heat shock protein family (Hsp40) member B7)	2	0.422	5.94	inactive
81	DNAJB7 (DnaJ heat shock protein family (Hsp40) member B7)	3	-0.599	-1.25	inactive
82	MRPL2 (mitochondrial ribosomal protein L2)	1	2.51	20.6	inactive
83	MRPL2 (mitochondrial ribosomal protein L2)	2	-0.576	-1.08	inactive
84	MRPL2 (mitochondrial ribosomal protein L2)	3	0.0172	3.09	inactive
85	SYCE1 (synaptonemal complex central element protein 1)	1	-0.198	1.58	inactive
86	SYCE1 (synaptonemal complex central element protein 1)	2	0.12	3.81	inactive
87	SYCE1 (synaptonemal complex central element protein 1)	3	-0.157	1.86	inactive

Limited to “G2 cells, % of GMNN control” (14 entries from above):
GRIA4 (glutamate ionotropic receptor AMPA type subunit 4) #3 = 8.52
GSPT1 (G1 to S phase transition 1) #1 = 4.02
GSPT1 (G1 to S phase transition 1) #2 = 15.6
GSPT1 (G1 to S phase transition 1) #3 = 50.9
LIMCH1 (LIM and calponin homology domains 1) #1 = -2.14
LIMCH1 (LIM and calponin homology domains 1) #2 = 0.812
LIMCH1 (LIM and calponin homology domains 1) #3 = -1.2
STAT5B (signal transducer and activator of transcription 5B) #1 = -2.15
STAT5B (signal transducer and activator of transcription 5B) #2 = -7.24
STAT5B (signal transducer and activator of transcription 5B) #3 = 1.17
SIGLEC7 (sialic acid binding Ig like lectin 7) #1 = 30.5
SIGLEC7 (sialic acid binding Ig like lectin 7) #2 = -2.63
SIGLEC7 (sialic acid binding Ig like lectin 7) #3 = -1.26
RNASEH2A (ribonuclease H2 subunit A) #1 = -0.995
